Assay results published in PubChem BioAssay AID1508600 (Functional Genomics Laboratory (NCATS/FGL), 2020).
Among all 53,000 sequences or so, about 3,700 (7%) were called active.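 How the source made its calls: active means gene knockdowns whose robust z-score for IL-1 alpha signal is at least 2 or at most -2, so actives lie on both sides; inactive means the rest.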 The list shows a part of the results.

Assay: Components of the Cytosolic LPS Sensing Pathway: Gene Identification via Genome-wide siRNA Screen;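 further: robust z of the log signal after scaling to non-targeting control siRNA wells of the plate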
Conditions: RAW264.7 macrophages, IL-1a HTRF, actives lie on both sides, screened at 100 nM (by protocol), cells primed 5 h with Pam3CSK4 first
In short: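 Knockdown: 100 nM siRNA, 48h, RAW264.7. Stimulation: Pam3CSK4 5 h, then LipidA via TransIT-TKO 24 h. Output: supernatant IL-1a HTRF, negative-control-normalized, log robust z-score; viability by CellTiter-Glo.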

Sequence | z-score
GGUCAUCCUUGCCAAUCUCTT against Olfr686 | active: -2.11
GGUCUCUUCUAUUUUUACATT against Agps | inactive: -0.367
GGCAAUUUCUAAACAGGGATT against Atp6v1f | active: -2.01
GCUUUAUUGACACGACCCGTT against Rbm19 | inactive: 0.184
GCUUCAAUGACACCAGAAUTT against 6430571L13Rik | inactive: -0.511
GGAAGUAGAGAUCUCCUUATT against Btn1a1 | inactive: 0.96
GCAGAAAGAGAAUCUCCCGTT against Trp53bp2 | inactive: 0.0521
CCAGGAACACUAAUAACACTT against Akr1b10 | inactive: 0.314
GCCAACCUUCAAGGAAUAUTT against Cyp2b10 | inactive: 1.4
CCGGUGAACCCUAUAAAUATT against Ighg3 | inactive: 0.183
GGAAAAUUUGCCUGGACCGTT against Pf4 | inactive: 0.408
GGGAAUAGUUUAUAUGGACTT against Ccl20 | inactive: 0.315
GGUGAGUUUUGCUAAAAGUTT against Syp | inactive: 0.783
GGAUGUGUGUGUCUCCUCATT against Prr9 | inactive: -0.256
GGUCUAUUGAAAAAUAGGATT against Dock7 | inactive: -0.0138
GGCAACAGUUCACAAACCATT against Zfp263 | inactive: -0.616
GGAUAUCUAAUGUUAGAAGTT against Nim1k | inactive: -0.556
GGAUGAACACAAAGAACCCTT against Serpinb12 | inactive: -0.156
GGUCACUGUAAUGAUUUAUTT against Klhdc1 | inactive: 0.839
GGAAUACUUCCUGAAGGAATT against Ms4a3 | inactive: 0.413
GCAGAAAGCACACUCCUACTT against Psors1c2 | active: -2.02
GGAUAUCGAGGAUGUACUGTT against Micu2 | inactive: -0.339
CCAGAAACCAAUCUUUCUUTT against Serpinb1a | inactive: -0.0285
GCACAGGCUUAUGUUCCACTT against Vmn1r181 | inactive: -0.695
GGUGUUUACCUGUGACGAGTT against Zbtb49 | inactive: -1.25
GGAGUUUGAACAUAUGAAGTT against Rcn1 | inactive: -0.417
GGAAUUGUUGUCAACAAUCTT against BC005537 | inactive: 0.151

Pulled one by one from the list above (two):
Sequence | z-score
GCUUCAAUGACACCAGAAUTT against 6430571L13Rik | inactive: -0.511
GCCAACCUUCAAGGAAUAUTT against Cyp2b10 | inactive: 1.4

Going on with the list.

Sequence | z-score
GGUGGACGUACUUUUUAACTT against Gata3 | active: 2.59
GGUUGUGAUGUGGUGGUCATT against Mdh2 | inactive: 1.3
GGGCUUGAUUGUGAAAGAATT against Tlr12 | inactive: -1.82
CGAAAGUACCAUGCCUACATT against Clec5a | inactive: 1.09
CCUUCCCUAAGAUCAGGCGTT against Gsdma3 | inactive: -0.287
GCACCGUUCAAGAAAUCGATT against Isoc1 | inactive: 0.969
CCGAUUUCCACAUCUGUCATT against Fam104a | active: -2.45
GUAUUAUUCCGUUCCUACUTT against Olfr392 | inactive: 1.57
CGAAAAACGACACGUAAAATT against Dnmt1 | inactive: -0.499
CGUAAUGGAGACUACCGAATT against Syn1 | inactive: 0.1
GGAGAGGAGAUUCAGUACATT against Otc | inactive: 0.768
GGUAGAUUGCCAACAGUGCTT against Rap1a | inactive: 0.952
GUGGAAAACAAGUGGCGGUTT against Cox7c | inactive: 0.241
GCCAUAUUGCUGUUUGCAATT against Cfap299 | inactive: -1.16
GGCGUGUUUUUGGAGUGCCTT against Vps8 | inactive: -1.48
GACCCUGUCCUACAUGUUATT against Rtl8c | inactive: -1.52
GGCCAUGAUAGCUGUGUUUTT against Wdr6 | inactive: -0.469
GCGUAUUGAUAUAAGCUCUTT against Erc2 | inactive: -0.484
GGGCAACCUGGUUACACAUTT against Zfp637 | inactive: 1.25
GGCUGAAUGACUACGUGUGTT against Cldn14 | inactive: 1.55
GGAAGAAAUGAUAAAUGCATT against Itgbl1 | inactive: 0.747
GGUGGAAAGAUCAACAGACTT against Tpst1 | inactive: -1.31
GGAAGUUAUUGCCAGCGAGTT against Fbxo5 | inactive: -0.418
GGAAUCAAUGGGAUAUUUUTT against Slc2a2 | inactive: 0.964
GGCCUUUGCCAACAGGUCATT against Zfp27 | inactive: 0.714
CCAAACCAUAUGGAGAAGGTT against Stn1 | inactive: -1.35
